Record: PubChem BioAssay AID1259254 (NCATS, 2017)
Test: 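Finding genes that stop cells copying their DNA twice in one cycle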 (primary screen). Cells: human HCT116 colorectal cancer cells. Reagents: single siRNA against human genes. Time to read-out: 3 days. Detection: 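Imaged Hoechst DNA stain sorts each cell into a cycle phase by DNA amount; per plate, G2 fraction set to 0% for non-targeting and 100% for GMNN siRNA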. Direction: G2 robust z-score: higher = more G2 cells, more excess DNA replication. Call rule: 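Active siRNAs have a G2 robust z of 5 or more median absolute deviations over the median, which in these data means about 38% or higher of GMNN control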.
In all, the deposit lists about 59,000 reagents; this is a part drawn at random. Of all reagents, about 1,550 (2.6%) got an active call. 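G2 share is only a proxy for re-replication; each gene was hit by three separate siRNAs, and active genes were retested.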 Unmarked entries are inactive. Not all columns of the deposit are shown. No sequences are given here. Not stated in the record: the amount of reagent.

G2 robust z-score, by target and reagent
NR2F6: SID160723750 0.165; SID160761388 -0.334; SID160761399 1.96
NCOA5: SID160746679 -0.416; SID160746680 -0.966; SID160746682 -0.605
CLPB: SID160731969 -0.0789; SID160750836 1.41; SID160750837 -0.624
PKNOX2: SID160747213 -0.496; SID160747214 -0.805; SID160747215 0.158
STX5: SID160717508 0.293; SID160717509 3.56; SID160717512 1.71
ANO7: SID160733474 0.107; SID160739678 -0.49; SID160739679 1.08
THAP11: SID160745834 2.31; SID160745835 -0.506; SID160745836 -0.185
RMND5A: SID160748006 -0.504; SID160748007 -0.637; SID160748008 3.83
MOCS2: SID160731238 -1.12; SID160777400 -0.424; SID160777401 -0.778
OR10Z1: SID160756749 2.91; SID160756750 0.832; SID160756751 -0.672
RUSC2: SID160723257 0.161; SID160723258 0.107; SID160723260 -0.615
MT1IP: SID160733872 2.83; SID160769184 0.117; SID160769185 -0.374
SNTB1: SID160717153 -0.106; SID160731773 -0.623; SID160731774 -0.43
DSCR9: SID160732829 -0.73; SID160762544 1.27; SID160762545 1.67
SLC67A1-AS: SID160778442 1.64; SID160778443 -0.174; SID160778444 -0.456
PDE4A: SID160713987 0.509; SID160713988 -0.184; SID160731367 2.31
DNAJC11: SID160744214 -0.18; SID160744215 -0.128; SID160744216 1.34
ALDH3B2: SID160716382 0.483; SID160716393 1.42; SID160716404 -1.28

9 entries from above, arranged by “G2 robust z-score”, ascending.
target	PubChem SID	G2 robust z-score
DSCR9	SID160732829	-0.73
SLC67A1-AS	SID160778444	-0.456
SNTB1	SID160731774	-0.43
PDE4A	SID160713988	-0.184
SLC67A1-AS	SID160778443	-0.174
PDE4A	SID160713987	0.509
DSCR9	SID160762544	1.27
SLC67A1-AS	SID160778442	1.64
DSCR9	SID160762545	1.67

The listing continues:
G2 robust z-score, by target and reagent
SLC35B3: SID160739820 -0.931; SID160739821 0.289; SID160739822 -0.842
ECHDC1: SID160744549 2.6; SID160744550 1.9; SID160744552 0.168
ARHGDIG: SID160719968 0.208; SID160719978 1.47; SID160719989 0.856
TRAF3IP2: SID160729160 -0.466; SID160729161 0.623; SID160729162 1.35
GYPC: SID160774758 -0.135; SID160774759 0.243; SID160774760 0.698
IL5RA: SID160775717 -0.892; SID160775718 -0.344; SID160775720 1.38
TMEM107: SID160752139 3.57; SID160752140 1.61; SID160752141 -0.482
LINC01521: SID160733574 0.658; SID160742563 0.393; SID160742564 -0.486
ADRA1D: SID160714862 0.145; SID160714872 -1.1; SID160714882 0.656
SLC45A1: SID160739688 0.71; SID160739689 -0.147; SID160739690 0.128
CA1: SID160731538 -0.574; SID160731624 0.422; SID160731716 2.28
